At least one compound was matched to its structure with a doubt left.
System: skeletal muscle precursor cells obtained from the frozen cell preparation
Assay: Study on type of growth factor and FSK: marker gene expression in skeletal muscle precursor cells from frozen cell preparation
Assay type: cell-based, human
Settings: 10 μM FSK with growth factor; 2 weeks after plating

## C=C[C@@]1(C)CC(=O)[C@]2(O)[C@@]3(C)[C@@H](O)CCC(C)(C)[C@@H]3[C@H](O)[C@H](OC(C)=O)[C@@]2(C)O1 [FSK, (3R)-(6AαH)dodecahydro-6β,10α,10bα-trihydroxy-3β,4aβ,7,7,10Aβ-pentamethyl-1-oxo-3-vinyl-1H-naphtho[2,1-b]pyran-5β-yl acetate]
  expression levels of PAX7, MYH3, MYH8 and MYOD1 with FSK added together with the growth factor: synergistically increased the expression levels of these markers

Reference: US20190338251A1, “Skeletal Muscle Precursor Cells and Production Method for Skeletal Muscle Cells” (Takeda Pharmaceutical Company Limited, priority 2016, published 2019)
